In patent publication US20080118512A1 (DELENEX THERAPEUTICS, published 2008) one finds binding data, which are given here for one molecule.

Results are given in words; binding and its absence hold for the method and conditions named. Some results given as binding are weak or reduced against the parent protein; the word gives no strength.

This assay deals with T1, human ALK epitope peptide (amino acids 391-406 of the ALK protein) (human).
T1 sequence (peptide): GRIGRPDNPFRVALEY
Kind of assay: ELISA; the coated antigen is not named on the sheet or in the legend, taken as the ALK epitope peptide. In general terms: In an ELISA, binding on a coated surface is turned into a signal by an enzyme label.

B1: scFv 28.11 (scFv)
scFv: QSVLTQPPSVSAAPGQKVTISCSGSTSNIGDNYVSWYQQLPGTAPQLLIYDNTKRPSGIPDRFSGSKSGTSATLGITGLQTGDEADYYCATWDNDKWGVVFGGGTKLEVLGGGGGSGGGGSGGGGSSGGGSEVQLVESGGGLVQPGGSLRLSCAASGFTFSSYAMSWVRQAPGKGLEWVSAIETSSGSTYYADSVKGRFTISRDNSKNTLYLQMNSLRAEDTAVYYCARDAWLDVLSDGFDYWGQGTLVTVSS
For B1, the binding result is listed as “binds”.
